Assay results taken from PMC9925730, “Controlled sequential in situ self-assembly and disassembly of a fluorogenic cisplatin prodrug for cancer theranostics” (Nature Communications, 2023).
Values joined by “and” are separate entries in the source; they are usually repeats but may differ in a detail not shown here. Identical values can stand only once. Further values from the same series stand in other lists.

Amino acid sequences for entries named in this document (tags omitted). Residues count along the entry.
UniProt P19111, 20-533: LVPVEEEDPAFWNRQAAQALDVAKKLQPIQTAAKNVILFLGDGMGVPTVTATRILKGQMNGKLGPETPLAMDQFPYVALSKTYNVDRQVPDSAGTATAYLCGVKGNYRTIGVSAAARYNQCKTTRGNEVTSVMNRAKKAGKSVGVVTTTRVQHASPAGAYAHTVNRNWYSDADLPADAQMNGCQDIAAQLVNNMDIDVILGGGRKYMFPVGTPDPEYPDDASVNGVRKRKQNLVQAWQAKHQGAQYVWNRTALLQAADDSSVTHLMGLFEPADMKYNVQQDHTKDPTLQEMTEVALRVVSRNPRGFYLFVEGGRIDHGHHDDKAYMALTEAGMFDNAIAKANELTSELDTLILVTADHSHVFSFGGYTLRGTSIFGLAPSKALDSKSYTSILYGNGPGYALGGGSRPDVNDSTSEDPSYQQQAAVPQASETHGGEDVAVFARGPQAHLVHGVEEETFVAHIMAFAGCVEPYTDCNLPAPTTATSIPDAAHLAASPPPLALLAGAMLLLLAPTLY

Biological target: T1, ALP (Bos taurus, UniProt P19111)
T1 construct: Alkaline phosphatase from bovine; purchased Sigma-Aldrich; host or cells: bovine intestinal mucosa (tissue-derived)
Experiment: Dephosphorylated efficacy of P-CyPt towards varying concentrations of ALP (NIR fluorescence)
Format: biochemical

Structure (SMILES): CC1(C)C(/C=C/C2=C3Oc4cc(OP(=O)(O)O)c(Cl)cc4C=C3CCC2)=[N+](CCCNC(=O)[C@@H](Cc2ccccc2)NC(=O)[C@@H](Cc2ccccc2)NC(=O)CCC(=O)[O][Pt]([NH2])([NH2])([OH])([Cl])[Cl])c2ccccc21 [P-CyPt]
- Normalized FL intensity (ALP 50 U/L, 20 min, single samples): 5.296 and 5.448 and 5.639
- Normalized FL intensity (ALP 50 U/L, 22 min, mean of 3 samples): 5.941
- Normalized FL intensity (ALP 50 U/L, 22 min, single samples): 5.783 and 5.883 and 6.157
- Normalized FL intensity (ALP 50 U/L, 24 min, mean of 3 samples): 6.413
- Normalized FL intensity (ALP 50 U/L, 24 min, single samples): 6.178 and 6.457 and 6.604
- Normalized FL intensity (ALP 50 U/L, 26 min, mean of 3 samples): 6.764
- Normalized FL intensity (ALP 50 U/L, 26 min, single samples): 6.596 and 6.63 and 7.065
- Normalized FL intensity (ALP 50 U/L, 28 min, mean of 3 samples): 7.301
- Normalized FL intensity (ALP 50 U/L, 28 min, single samples): 7.048 and 7.33 and 7.526
- Normalized FL intensity (ALP 50 U/L, 30 min, mean of 3 samples): 7.742
- Normalized FL intensity (ALP 50 U/L, 30 min, single samples): 7.4913 and 7.8 and 7.935
- Normalized FL intensity (ALP 100 U/L, 0 min, mean of 3 samples): 0.9638
- Normalized FL intensity (ALP 100 U/L, 0 min, single samples): 0.9261 and 0.9435 and 1.022
- Normalized FL intensity (ALP 100 U/L, 2 min, mean of 3 samples): 1.793
- Normalized FL intensity (ALP 100 U/L, 2 min, single samples): 1.73 and 1.748 and 1.9
- Normalized FL intensity (ALP 100 U/L, 4 min, mean of 3 samples): 2.443
- Normalized FL intensity (ALP 100 U/L, 4 min, single samples): 2.43 and 2.439 and 2.461
- Normalized FL intensity (ALP 100 U/L, 6 min, mean of 3 samples): 3.13
- Normalized FL intensity (ALP 100 U/L, 6 min, single samples): 3.1 and 3.113 and 3.178
- Normalized FL intensity (ALP 100 U/L, 8 min, mean of 3 samples): 3.943
- Normalized FL intensity (ALP 100 U/L, 8 min, single samples): 3.878 and 3.943 and 4.0087
- Normalized FL intensity (ALP 100 U/L, 18 min, mean of 3 samples): 6.881
- Normalized FL intensity (ALP 100 U/L, 18 min, single samples): 6.761 and 6.813 and 7.07
- Normalized FL intensity (ALP 100 U/L, 20 min, mean of 3 samples): 7.472
- Normalized FL intensity (ALP 100 U/L, 20 min, single samples): 7.413 and 7.452 and 7.552
- Normalized FL intensity (ALP 100 U/L, 22 min, mean of 3 samples): 7.851
- Normalized FL intensity (ALP 100 U/L, 22 min, single samples): 7.748 and 7.852 and 7.952
- Normalized FL intensity (ALP 100 U/L, 24 min, mean of 3 samples): 8.357
- Normalized FL intensity (ALP 100 U/L, 24 min, single samples): 8.326 and 8.343 and 8.4
- Normalized FL intensity (ALP 100 U/L, 26 min, mean of 3 samples): 8.425
- Normalized FL intensity (ALP 100 U/L, 26 min, single samples): 8.326 and 8.461 and 8.487
- Normalized FL intensity (ALP 100 U/L, 28 min, mean of 3 samples): 8.4
- Normalized FL intensity (ALP 100 U/L, 28 min, single samples): 8.374 and 8.383 and 8.443
- Normalized FL intensity (ALP 100 U/L, 30 min, mean of 3 samples): 8.367
- Normalized FL intensity (ALP 100 U/L, 30 min, single samples): 8.343 and 8.352 and 8.404
- Normalized FL intensity (ALP 200 U/L, 0 min, mean of 3 samples): 0.9493
- Normalized FL intensity (ALP 200 U/L, 0 min, single samples): 0.9609 and 0.8826 and 1.004
- Normalized FL intensity (ALP 200 U/L, 2 min, mean of 3 samples): 1.858
- Normalized FL intensity (ALP 200 U/L, 2 min, single samples): 1.852 and 1.83 and 1.8913
- Normalized FL intensity (ALP 200 U/L, 4 min, mean of 3 samples): 2.71
- Normalized FL intensity (ALP 200 U/L, 4 min, single samples): 2.735 and 2.643 and 2.752
- Normalized FL intensity (ALP 200 U/L, 6 min, mean of 3 samples): 3.807
- Normalized FL intensity (ALP 200 U/L, 6 min, single samples): 3.596 and 3.774 and 4.052
- Normalized FL intensity (ALP 200 U/L, 8 min, mean of 3 samples): 4.717
- Normalized FL intensity (ALP 200 U/L, 8 min, single samples): 4.474 and 4.73 and 4.948
- Normalized FL intensity (ALP 200 U/L, 16 min, mean of 3 samples): 7.213
- Normalized FL intensity (ALP 200 U/L, 16 min, single samples): 7.083 and 7.004 and 7.552
- Normalized FL intensity (ALP 200 U/L, 18 min, mean of 3 samples): 7.878
- Normalized FL intensity (ALP 200 U/L, 18 min, single samples): 7.813 and 7.852 and 7.97
- Normalized FL intensity (ALP 200 U/L, 20 min, mean of 3 samples): 8.21
- Normalized FL intensity (ALP 200 U/L, 20 min, single samples): 7.952 and 8.213 and 8.465
- Normalized FL intensity (ALP 200 U/L, 22 min, mean of 3 samples): 8.501
- Normalized FL intensity (ALP 200 U/L, 22 min, single samples): 8.452 and 8.648 and 8.404
- Normalized FL intensity (ALP 200 U/L, 24 min, mean of 3 samples): 8.623
- Normalized FL intensity (ALP 200 U/L, 24 min, single samples): 8.843 and 8.613 and 8.413
- Normalized FL intensity (ALP 200 U/L, 26 min, mean of 3 samples): 8.57
- Normalized FL intensity (ALP 200 U/L, 26 min, single samples): 8.6913 and 8.6 and 8.417
- Normalized FL intensity (ALP 200 U/L, 28 min, mean of 3 samples): 8.629
- Normalized FL intensity (ALP 200 U/L, 28 min, single samples): 8.3913 and 8.743 and 8.752
- Normalized FL intensity (ALP 200 U/L, 30 min, mean of 3 samples): 8.378
- Normalized FL intensity (ALP 200 U/L, 30 min, single samples): 8.4 and 8.296 and 8.439
- Normalized FL intensity (ALP 500 U/L, 0 min, mean of 3 samples): 0.9826
- Normalized FL intensity (ALP 500 U/L, 0 min, single samples): 0.9391 and 1 and 1.0087
- Normalized FL intensity (ALP 500 U/L, 2 min, mean of 3 samples): 1.93
- Normalized FL intensity (ALP 500 U/L, 2 min, single samples): 1.896 and 1.926 and 1.97
- Normalized FL intensity (ALP 500 U/L, 4 min, mean of 3 samples): 3.083
- Normalized FL intensity (ALP 500 U/L, 4 min, single samples): 2.874 and 2.935 and 3.439
- Normalized FL intensity (ALP 500 U/L, 6 min, mean of 3 samples): 4.441
- Normalized FL intensity (ALP 500 U/L, 6 min, single samples): 4.026 and 4.539 and 4.757
- Normalized FL intensity (ALP 500 U/L, 8 min, mean of 3 samples): 5.4029
- Normalized FL intensity (ALP 500 U/L, 8 min, single samples): 5.357 and 5.417 and 5.435
- Normalized FL intensity (ALP 500 U/L, 16 min, mean of 3 samples): 7.73
- Normalized FL intensity (ALP 500 U/L, 16 min, single samples): 7.539 and 7.6 and 8.052
- Normalized FL intensity (ALP 500 U/L, 18 min, mean of 3 samples): 8.032
- Normalized FL intensity (ALP 500 U/L, 18 min, single samples): 7.974 and 8.065 and 8.057
- Normalized FL intensity (ALP 500 U/L, 20 min, mean of 3 samples): 8.168
- Normalized FL intensity (ALP 500 U/L, 20 min, single samples): 7.97 and 7.978 and 8.557
- Normalized FL intensity (ALP 500 U/L, 22 min, mean of 3 samples): 8.47
- Normalized FL intensity (ALP 500 U/L, 22 min, single samples): 8.483 and 8.422 and 8.504
- Normalized FL intensity (ALP 500 U/L, 24 min, mean of 3 samples): 8.454
- Normalized FL intensity (ALP 500 U/L, 24 min, single samples): 8.43 and 8.426 and 8.504
- Normalized FL intensity (ALP 500 U/L, 26 min, mean of 3 samples): 8.468
- Normalized FL intensity (ALP 500 U/L, 26 min, single samples): 8.417 and 8.478 and 8.5087
- Normalized FL intensity (ALP 500 U/L, 28 min, mean of 3 samples): 8.4942
- Normalized FL intensity (ALP 500 U/L, 28 min, single samples): 8.426 and 8.478 and 8.578
- Normalized FL intensity (ALP 500 U/L, 30 min, mean of 3 samples): 8.483
- Normalized FL intensity (ALP 500 U/L, 30 min, single samples): 8.426 and 8.487 and 8.535
